Data on 30 molecules can be found in the supplement of paper PMC4635364.

The test system of test [1] is ReNCell VM. Description: neuronal differentiation score (DCX+ cell fraction vs untreated, manual image score) (score (-3 to 3)); higher = more neuronal differentiation. Conditions: 2 uM, 2 weeks.
For test [2], the system named is ReNCell VM. Description: dopaminergic neuron differentiation score (TH+ cell fraction vs untreated, manual image score) (score (0 to 3)); higher = more TH+ dopaminergic neuron differentiation. As to conditions: 2 uM, 4 weeks, BDNF 10 ng/ml + GDNF 10 ng/ml.

Counter-ions that a name gives are not always drawn. The list shows a part of the results. This data set is noisy: repeats of one test often differ as much as different tests do.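 Human fetal ventral-midbrain neural progenitor line ReNCell VM, differentiated without mitogens. Images stained for doublecortin (early neurons) or tyrosine hydroxylase (dopaminergic neurons) were scored by blinded raters against untreated wells (0 = no change). Repeats and both raters were averaged, and compounds averaging 2 or higher were picked as hits for retesting.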 *1 amine or outer side, *2 acyl side, *3 side chain or, on linkers, in order; H or OH if unused. Where a SMILES comes first, the peptide text is derived from it. Bridges are numbered along the chain shown (N, C = ends). [ ]: non-standard residue; d: D form. The star is where a group is joined. X1 = NC1=N[C@@H]([C@H](N[*:1])C(=O)[*:2])C[C@H](O)N1; ΔAla(Z-3-ureido) = NC(=O)N/C=C(\N)C(=O)O; β3hOrn = NCCC[C@H](N)CC(=O)*; Dap = NC[C@H](N)C(=O)O

`Cc1ccc(/C(=C\CN2CCCC2)c2ccccn2)cc1`: the neuronal differentiation score with ReNCell VM [1] (library: Spectrum) was inactive: 0. The “dopaminergic neuron differentiation score” value in the test with ReNCell VM [2] (library: Spectrum) was inactive: 0.

In the case of `O=c1cc(N2CCNCC2)oc2c(-c3ccccc3)cccc12`, the neuronal differentiation score with ReNCell VM [1] (library: Tocriscreen) is inactive: 0. For the same molecule, the “dopaminergic neuron differentiation score” value in the test on ReNCell VM [2] (library: Tocriscreen) is inactive: 0.

In the case of `CC1(C)[C@@H](OC(=O)CCC(=O)O)CC[C@]2(C)[C@H]3C(=O)C=C4[C@@H]5C[C@@](C)(C(=O)O)CC[C@]5(C)CC[C@@]4(C)[C@]3(C)CC[C@@H]12` [Carbenoxolone disodium salt], the neuronal differentiation score in the test with ReNCell VM [1] (library: Prestwick) was inactive: 0. Moreover, the “dopaminergic neuron differentiation score” value in the test on ReNCell VM [2] (library: Prestwick) was inactive: 0.

Regarding `O=C(O)[C@@H]1[C@H]2C[C@H]3c4[nH]c5ccccc5c4CCN3C[C@@H]2CC[C@@H]1O` [Yohimbinic acid monohydrate], in the test with ReNCell VM [1] (library: Phytochemical), the neuronal differentiation score was inactive: 0. The “dopaminergic neuron differentiation score” value in the test with ReNCell VM [2] (library: Phytochemical) was inactive: 0.

On to `O=c1c(-c2cc(O)c(O)c(O)c2)coc2cc(O)c(O)c(O)c12`, for which the neuronal differentiation score in the test on ReNCell VM [1] (library: Spectrum) was inactive: 0. Further, the “dopaminergic neuron differentiation score” value with ReNCell VM [2] (library: Spectrum) is inactive: 0.

In the case of `CC(=O)N(OCc1ccccc1)[C@H]1c2cc(C#N)ccc2OC(C)(C)[C@H]1O`, in the test on ReNCell VM [1] (library: Tocriscreen), the neuronal differentiation score is inactive: 0. The “dopaminergic neuron differentiation score” value with ReNCell VM [2] (library: Tocriscreen) was inactive: 0.

On to `CCOC(=O)c1ccc(OC(=O)CCCCCNC(=N)N)cc1` [Gabexate mesylate], for which, in the test on ReNCell VM [1] (library: Tocriscreen), the neuronal differentiation score was inactive: 0. The “dopaminergic neuron differentiation score” value in the test on ReNCell VM [2] (library: Tocriscreen) is inactive: 0.

As to `O=C(O)c1cc(O)c2c(c1)[C@H]([C@H]1c3cc(C(=O)O)cc(O)c3C(=O)c3c(O[C@@H]4O[C@H](CO)[C@@H](O)[C@H](O)[C@H]4O)cccc31)c1cccc(O[C@@H]3O[C@H](CO)[C@@H](O)[C@H](O)[C@H]3O)c1C2=O`, the neuronal differentiation score in the test on ReNCell VM [1] (library: Spectrum) was inactive: 0. In addition, the “dopaminergic neuron differentiation score” value in the test with ReNCell VM [2] (library: Spectrum) is inactive: 0.

In the case of `c1ccc(C(NCc2cccnc2)(c2ccccc2)c2ccccc2)cc1`, in the test with ReNCell VM [1] (library: Tocriscreen), the neuronal differentiation score was inactive: 0. The “dopaminergic neuron differentiation score” value in the test with ReNCell VM [2] (library: Tocriscreen) is inactive: 0.

As for `CN(C)CCCN1c2ccccc2CCc2ccc(Cl)cc21`, the neuronal differentiation score in the test with ReNCell VM [1] (library: Spectrum) is inactive: -1. For the same molecule, the “dopaminergic neuron differentiation score” value in the test with ReNCell VM [2] (library: Spectrum) was inactive: 0.

For `Cc1cccc(CN2CCN(C(c3ccccc3)c3ccc(Cl)cc3)CC2)c1` (stereo not given) [Meclozine dihydrochloride], the neuronal differentiation score in the test with ReNCell VM [1] (library: Prestwick) was inactive: 0. The “dopaminergic neuron differentiation score” value in the test with ReNCell VM [2] (library: Prestwick) was inactive: 0.

Regarding `COc1cc2c3cc1Oc1cc(ccc1O)C[C@@H]1c4c(cc(OC)c(O)c4Oc4ccc(cc4)C[C@@H]3N(C)CC2)CC[N+]1(C)C`, in the test with ReNCell VM [1] (library: Spectrum), the neuronal differentiation score is inactive: 0. Also, the “dopaminergic neuron differentiation score” value in the test on ReNCell VM [2] (library: Spectrum) is inactive: 0.

For `Nc1nc(NCC2CCC(CNS(=O)(=O)c3cccc4ccccc34)CC2)nc2ccccc12` (stereo not given), in the test with ReNCell VM [1] (library: Tocriscreen), the neuronal differentiation score is inactive: 0. Further, in the test with ReNCell VM [2] (library: Tocriscreen), the “dopaminergic neuron differentiation score” value was inactive: 0.

With `CCCCC#Cc1nc(NC)c2ncn([C@@H]3O[C@H](CO)[C@@H](O)[C@H]3O)c2n1`, the neuronal differentiation score with ReNCell VM [1] (library: Tocriscreen) is inactive: 0. Further, in the test on ReNCell VM [2] (library: Tocriscreen), the “dopaminergic neuron differentiation score” value was inactive: 0.

Consider `N[C@@H](Cc1cc(I)c(Oc2ccc(O)c(I)c2)c(I)c1)C(=O)O`, for which the neuronal differentiation score with ReNCell VM [1] (library: Spectrum) is inactive: -1. Further, the “dopaminergic neuron differentiation score” value with ReNCell VM [2] (library: Spectrum) was inactive: 0.

For the molecule `O=C(O)CCC(=O)c1ccc(-c2ccccc2)cc1`, the neuronal differentiation score in the test on ReNCell VM [1] (library: Spectrum) is inactive: 0. Further, in the test with ReNCell VM [2] (library: Spectrum), the “dopaminergic neuron differentiation score” value is inactive: 0.

Regarding `O=C(Nc1cccc(C(=O)Nc2ccc(S(=O)(=O)O)c3cc(S(=O)(=O)O)cc(S(=O)(=O)O)c23)c1)Nc1cccc(C(=O)Nc2ccc(S(=O)(=O)O)c3cc(S(=O)(=O)O)cc(S(=O)(=O)O)c23)c1`, the neuronal differentiation score in the test on ReNCell VM [1] (library: LOPAC) is inactive: -1. The “dopaminergic neuron differentiation score” value in the test on ReNCell VM [2] (library: LOPAC) was inactive: 0.

Turning to `O=C(O)c1cc(=O)c2cccc(O)c2[nH]1`, in the test on ReNCell VM [1] (library: Spectrum), the neuronal differentiation score is inactive: 0. In the test with ReNCell VM [2] (library: Spectrum), the “dopaminergic neuron differentiation score” value was inactive: 0.

On to `CC(=O)OCC(CCn1cnc2cnc(N)nc21)COC(C)=O` [Famciclovir], for which the neuronal differentiation score in the test with ReNCell VM [1] (library: Prestwick) was inactive: 0. Also, the “dopaminergic neuron differentiation score” value in the test on ReNCell VM [2] (library: Prestwick) is inactive: 0.

Turning to `COc1cc2ncn(-c3cc(OCc4ccccc4C(F)(F)F)c(C(N)=O)s3)c2cc1OC`, the neuronal differentiation score in the test on ReNCell VM [1] (library: Tocriscreen) is inactive: 0. For the same molecule, the “dopaminergic neuron differentiation score” value in the test with ReNCell VM [2] (library: Tocriscreen) is inactive: 0.

Take `NCCC[C@H](N)CC(=O)N[C@H]1CNC(=O)[C@H]([C@H]2C[C@H](O)NC(N)=N2)NC(=O)/C(=C/NC(N)=O)NC(=O)[C@H](CO)NC(=O)[C@H](CO)NC1=O` (β3hOrn-[Dap]SS[ΔAla(Z-3-ureido)][X1]; lactam 1-C): in the test with ReNCell VM [1] (library: Spectrum), the neuronal differentiation score was inactive: 0. Moreover, in the test on ReNCell VM [2] (library: Spectrum), the “dopaminergic neuron differentiation score” value was inactive: 0.

On to `CCCCOc1cc(C(=O)NCCN(CC)CC)c2ccccc2n1`, for which the neuronal differentiation score in the test on ReNCell VM [1] (library: Spectrum) is inactive: 0. Besides, the “dopaminergic neuron differentiation score” value in the test on ReNCell VM [2] (library: Spectrum) is inactive: 1.

Turning to `COc1ccccc1O`, the neuronal differentiation score with ReNCell VM [1] (library: Spectrum) was inactive: 0. Further, in the test on ReNCell VM [2] (library: Spectrum), the “dopaminergic neuron differentiation score” value was inactive: 0.

`CCOC(=O)C1=C(C)NC(=S)NC1c1cccc(O)c1` (stereo not given) [Monastrol]: the neuronal differentiation score with ReNCell VM [1] (library: Tocriscreen) was inactive: 0. Besides, the “dopaminergic neuron differentiation score” value in the test on ReNCell VM [2] (library: Tocriscreen) was inactive: 0.

For `CC[N+](CC)(CC)CCC(O)(c1ccccc1)C1CCCCC1` (stereo not given) [Tridihexethyl chloride], the neuronal differentiation score in the test on ReNCell VM [1] (library: Prestwick) is inactive: 0. Moreover, the “dopaminergic neuron differentiation score” value in the test on ReNCell VM [2] (library: Prestwick) was inactive: 0.

In the case of `CC(=O)NC(Cc1ccccc1)C(=O)O` (stereo not given), the neuronal differentiation score in the test with ReNCell VM [1] (library: Spectrum) is inactive: 0. Also, the “dopaminergic neuron differentiation score” value in the test with ReNCell VM [2] (library: Spectrum) is inactive: 0.

For the molecule `CNC[C@H](O)c1ccc(O)c(O)c1` [(-)-Epinephrine bitartrate], in the test with ReNCell VM [1] (library: LOPAC), the neuronal differentiation score was inactive: 0. The “dopaminergic neuron differentiation score” value in the test on ReNCell VM [2] (library: LOPAC) was inactive: 0.

With `C[C@H]1O[C@@H](O[C@H]2[C@@H](O)C[C@H](O[C@H]3[C@@H](O)C[C@H](O[C@H]4CC[C@@]5(C)[C@H](CC[C@@H]6[C@@H]5C[C@@H](O)[C@]5(C)[C@@H](C7=CC(=O)OC7)CC[C@]65O)C4)O[C@@H]3C)O[C@@H]2C)C[C@H](O)[C@@H]1O`, the neuronal differentiation score in the test on ReNCell VM [1] (library: Spectrum) is inactive: 0. Also, the “dopaminergic neuron differentiation score” value in the test with ReNCell VM [2] (library: Spectrum) was inactive: 0.

For `Cc1ccc(Nc2c(F)cccc2Cl)c(CC(=O)O)c1`, the neuronal differentiation score in the test with ReNCell VM [1] (library: Spectrum) is inactive: 0. Further, the “dopaminergic neuron differentiation score” value in the test on ReNCell VM [2] (library: Spectrum) was inactive: 0.

For the molecule `CCCN(CCC)CCc1cccc2c1CC(=O)N2` [Ropinirole hydrochloride], in the test with ReNCell VM [1] (library: LOPAC), the neuronal differentiation score was inactive: 0. The “dopaminergic neuron differentiation score” value in the test on ReNCell VM [2] (library: LOPAC) was inactive: 0.
